Reference: PMC12432198
No constants are given. Whether binding was seen depends on the method and setting. For part of these data: Binding seen in cells or lysates may run through a third protein. Some binding calls cover weakened binding; strength is not graded here. For part of these data: Sequences can lack the tags named with a protein. One block for each molecule: values may come before it.

By UniProt entry, the sequences of proteins in these tests, tags left out. Where a name states a change or a piece, a line headed by the entry shows the natural chain unless it says otherwise.
UniProt Q09472: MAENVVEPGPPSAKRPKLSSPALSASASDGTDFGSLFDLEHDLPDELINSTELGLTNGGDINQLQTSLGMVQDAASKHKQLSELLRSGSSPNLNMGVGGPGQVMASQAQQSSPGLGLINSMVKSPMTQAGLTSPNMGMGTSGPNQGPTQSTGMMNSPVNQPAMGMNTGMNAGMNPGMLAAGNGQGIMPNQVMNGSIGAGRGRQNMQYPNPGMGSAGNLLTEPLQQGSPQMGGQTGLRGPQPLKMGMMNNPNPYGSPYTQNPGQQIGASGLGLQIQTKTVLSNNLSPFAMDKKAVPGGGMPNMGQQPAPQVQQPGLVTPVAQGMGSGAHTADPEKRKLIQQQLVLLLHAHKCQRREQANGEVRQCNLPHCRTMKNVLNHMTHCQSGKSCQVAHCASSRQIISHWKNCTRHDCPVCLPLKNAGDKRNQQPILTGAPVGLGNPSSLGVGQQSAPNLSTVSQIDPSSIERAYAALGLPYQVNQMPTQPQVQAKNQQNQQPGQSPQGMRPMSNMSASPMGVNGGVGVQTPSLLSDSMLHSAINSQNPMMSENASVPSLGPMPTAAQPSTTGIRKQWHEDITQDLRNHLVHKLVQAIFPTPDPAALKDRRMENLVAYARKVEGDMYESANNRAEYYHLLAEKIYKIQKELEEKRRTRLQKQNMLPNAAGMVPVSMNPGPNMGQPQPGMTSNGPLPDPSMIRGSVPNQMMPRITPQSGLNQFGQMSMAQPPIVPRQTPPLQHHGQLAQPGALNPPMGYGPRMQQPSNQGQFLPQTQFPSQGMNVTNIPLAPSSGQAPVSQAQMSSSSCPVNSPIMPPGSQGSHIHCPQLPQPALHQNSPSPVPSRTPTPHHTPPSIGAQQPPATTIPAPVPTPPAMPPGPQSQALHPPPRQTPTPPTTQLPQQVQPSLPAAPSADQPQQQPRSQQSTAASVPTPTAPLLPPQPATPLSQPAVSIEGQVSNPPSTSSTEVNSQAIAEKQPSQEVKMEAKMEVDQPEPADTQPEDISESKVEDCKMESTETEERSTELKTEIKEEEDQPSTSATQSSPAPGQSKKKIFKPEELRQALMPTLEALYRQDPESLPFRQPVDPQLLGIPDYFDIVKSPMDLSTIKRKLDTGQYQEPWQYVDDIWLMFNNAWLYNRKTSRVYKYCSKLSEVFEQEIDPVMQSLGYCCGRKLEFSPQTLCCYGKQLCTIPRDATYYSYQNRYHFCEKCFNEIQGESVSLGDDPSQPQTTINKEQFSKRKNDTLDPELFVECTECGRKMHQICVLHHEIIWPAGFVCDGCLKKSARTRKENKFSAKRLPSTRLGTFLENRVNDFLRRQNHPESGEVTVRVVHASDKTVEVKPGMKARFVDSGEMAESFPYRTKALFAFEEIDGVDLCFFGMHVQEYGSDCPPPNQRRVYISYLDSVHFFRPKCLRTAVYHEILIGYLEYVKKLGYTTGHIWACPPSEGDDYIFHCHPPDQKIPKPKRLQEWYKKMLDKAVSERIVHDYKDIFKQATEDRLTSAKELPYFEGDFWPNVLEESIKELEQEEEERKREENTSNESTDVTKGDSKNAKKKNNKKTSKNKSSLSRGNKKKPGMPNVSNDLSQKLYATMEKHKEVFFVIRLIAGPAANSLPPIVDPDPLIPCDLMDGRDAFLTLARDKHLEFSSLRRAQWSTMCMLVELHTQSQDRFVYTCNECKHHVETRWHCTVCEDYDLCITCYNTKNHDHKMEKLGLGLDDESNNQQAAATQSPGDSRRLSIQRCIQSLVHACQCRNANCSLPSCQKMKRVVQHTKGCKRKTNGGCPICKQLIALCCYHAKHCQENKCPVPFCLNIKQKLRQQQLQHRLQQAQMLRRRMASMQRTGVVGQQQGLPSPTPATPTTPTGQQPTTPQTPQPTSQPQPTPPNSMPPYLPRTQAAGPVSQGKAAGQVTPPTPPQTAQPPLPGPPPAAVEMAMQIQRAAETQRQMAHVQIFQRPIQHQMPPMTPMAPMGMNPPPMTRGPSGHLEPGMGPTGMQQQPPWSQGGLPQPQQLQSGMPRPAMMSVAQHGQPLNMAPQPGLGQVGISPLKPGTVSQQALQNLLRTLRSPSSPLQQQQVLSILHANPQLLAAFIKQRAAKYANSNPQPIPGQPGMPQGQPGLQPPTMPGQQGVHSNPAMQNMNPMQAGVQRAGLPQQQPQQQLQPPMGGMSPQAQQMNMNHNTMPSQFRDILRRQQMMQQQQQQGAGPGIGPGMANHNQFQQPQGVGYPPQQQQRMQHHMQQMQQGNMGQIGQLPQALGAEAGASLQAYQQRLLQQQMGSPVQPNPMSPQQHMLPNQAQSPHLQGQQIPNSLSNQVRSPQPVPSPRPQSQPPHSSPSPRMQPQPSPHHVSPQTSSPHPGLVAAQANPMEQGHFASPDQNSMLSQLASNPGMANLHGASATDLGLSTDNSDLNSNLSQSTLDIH

Tests used:
[1] = target: T1, GCLC (bait of the GCLC-pull down complex, Fig. S6C) (human) (UniProt P48506); experiment: co-IP; GCLC-pull down complex, blot for P300 (Fig. S6C)
T1 sequence: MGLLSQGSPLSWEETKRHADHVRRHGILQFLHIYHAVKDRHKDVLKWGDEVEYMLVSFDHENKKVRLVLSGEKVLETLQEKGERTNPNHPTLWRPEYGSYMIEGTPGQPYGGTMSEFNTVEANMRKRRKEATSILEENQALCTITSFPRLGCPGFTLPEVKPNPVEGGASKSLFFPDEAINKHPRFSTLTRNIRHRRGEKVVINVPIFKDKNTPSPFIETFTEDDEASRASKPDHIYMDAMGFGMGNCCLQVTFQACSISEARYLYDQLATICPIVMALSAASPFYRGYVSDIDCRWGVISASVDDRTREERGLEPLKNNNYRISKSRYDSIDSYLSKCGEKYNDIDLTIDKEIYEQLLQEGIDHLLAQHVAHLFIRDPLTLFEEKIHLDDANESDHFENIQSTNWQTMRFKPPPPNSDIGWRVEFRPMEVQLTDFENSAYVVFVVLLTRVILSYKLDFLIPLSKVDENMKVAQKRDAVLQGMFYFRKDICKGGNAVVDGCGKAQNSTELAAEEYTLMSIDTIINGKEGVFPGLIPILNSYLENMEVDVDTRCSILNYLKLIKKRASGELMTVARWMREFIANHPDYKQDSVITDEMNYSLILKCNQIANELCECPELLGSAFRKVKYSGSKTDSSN

[2] = target: HA-P300 (UniProt Q09472); experiment: co-IP; HA-P300 pull-down complex, blot with anti-GCLC antibody; also HEK293T transfected with HA-P300 for 24 h and treated with 700 μM TBH for 12 h, which substantially decreased the association
[3] = target: T2, Flag-SIRT2 (human) (UniProt Q8IXJ6); experiment: co-IP; lysates of cells expressing the Flag-tagged bait, Flag-M2 beads overnight at 4 °C, IP buffer (50 mM Tris-HCl pH 7.5, 0.5% NP-40, 150 mM NaCl, 5 mM EDTA, 10% glycerin), blot for the endogenous partner; Flag-SIRT2 also after TBH (different concentrations 12 h; 700 μM for different times), which increased the co-precipitated GCLC
T2 sequence: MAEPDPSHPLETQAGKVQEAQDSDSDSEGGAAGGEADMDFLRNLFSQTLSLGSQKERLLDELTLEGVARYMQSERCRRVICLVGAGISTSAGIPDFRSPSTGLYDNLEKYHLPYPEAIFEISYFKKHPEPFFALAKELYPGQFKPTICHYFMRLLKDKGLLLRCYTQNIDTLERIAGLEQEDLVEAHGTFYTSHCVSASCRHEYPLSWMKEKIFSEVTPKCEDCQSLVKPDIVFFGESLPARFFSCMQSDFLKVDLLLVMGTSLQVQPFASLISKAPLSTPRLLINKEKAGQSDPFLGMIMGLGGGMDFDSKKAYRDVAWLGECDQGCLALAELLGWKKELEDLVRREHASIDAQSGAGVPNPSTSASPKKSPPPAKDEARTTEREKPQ

[4] = target: T3, endogenous GCLC (glutamate-cysteine ligase catalytic subunit) (human (endogenous in HEK293T)) (UniProt P48506); experiment: co-IP; HEK293T whole cell lysates, anti-GCLC antibody or control IgG, blot for endogenous SIRT2; IP buffer (50 mM Tris-HCl pH 7.5, 0.5% NP-40, 150 mM NaCl, 5 mM EDTA, 10% glycerin)
T3 sequence: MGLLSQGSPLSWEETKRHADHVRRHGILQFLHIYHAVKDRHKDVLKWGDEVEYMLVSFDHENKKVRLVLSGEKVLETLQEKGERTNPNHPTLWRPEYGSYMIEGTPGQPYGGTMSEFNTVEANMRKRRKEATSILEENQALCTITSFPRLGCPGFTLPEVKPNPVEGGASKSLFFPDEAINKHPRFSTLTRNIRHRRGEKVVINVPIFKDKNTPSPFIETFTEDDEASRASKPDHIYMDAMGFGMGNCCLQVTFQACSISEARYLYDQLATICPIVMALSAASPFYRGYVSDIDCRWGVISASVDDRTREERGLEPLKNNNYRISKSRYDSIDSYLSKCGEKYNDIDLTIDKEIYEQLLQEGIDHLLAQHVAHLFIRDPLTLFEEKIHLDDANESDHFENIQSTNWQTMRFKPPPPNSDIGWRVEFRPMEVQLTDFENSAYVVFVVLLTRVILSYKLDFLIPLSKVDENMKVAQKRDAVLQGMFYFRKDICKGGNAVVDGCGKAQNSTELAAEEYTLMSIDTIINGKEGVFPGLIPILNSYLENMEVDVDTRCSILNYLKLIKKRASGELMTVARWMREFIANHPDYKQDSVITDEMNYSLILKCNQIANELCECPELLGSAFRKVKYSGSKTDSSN

[5] = target: T4, Flag-GCLC (Flag-tagged glutamate-cysteine ligase catalytic subunit) (human) (UniProt P48506); experiment: co-IP; lysates of cells expressing the Flag-tagged bait, Flag-M2 beads overnight at 4 °C, IP buffer (50 mM Tris-HCl pH 7.5, 0.5% NP-40, 150 mM NaCl, 5 mM EDTA, 10% glycerin), blot for the endogenous partner; Flag-SIRT2 also after TBH (different concentrations 12 h; 700 μM for different times), which increased the co-precipitated GCLC
T4 sequence: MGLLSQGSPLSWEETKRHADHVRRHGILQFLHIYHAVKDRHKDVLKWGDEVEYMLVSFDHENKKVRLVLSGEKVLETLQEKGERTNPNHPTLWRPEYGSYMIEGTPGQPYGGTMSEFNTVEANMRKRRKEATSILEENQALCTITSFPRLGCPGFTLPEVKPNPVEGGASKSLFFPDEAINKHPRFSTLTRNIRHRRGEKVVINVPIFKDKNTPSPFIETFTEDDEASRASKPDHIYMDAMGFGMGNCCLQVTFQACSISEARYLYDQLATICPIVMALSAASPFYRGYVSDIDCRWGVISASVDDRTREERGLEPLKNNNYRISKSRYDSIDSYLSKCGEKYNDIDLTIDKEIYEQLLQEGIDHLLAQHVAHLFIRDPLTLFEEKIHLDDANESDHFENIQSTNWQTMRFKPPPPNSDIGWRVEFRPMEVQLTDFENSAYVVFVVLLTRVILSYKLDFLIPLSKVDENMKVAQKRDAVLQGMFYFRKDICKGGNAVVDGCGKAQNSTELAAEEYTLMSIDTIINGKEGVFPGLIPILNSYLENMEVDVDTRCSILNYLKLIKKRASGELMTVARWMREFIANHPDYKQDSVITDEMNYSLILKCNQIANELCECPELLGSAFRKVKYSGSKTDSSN

[6] = target: T5, GST-GCLC (human) (UniProt P48506); experiment: pull-down; GST-tagged proteins immobilised on GSH sepharose 4B at 4 °C overnight, incubated with His-SIRT2 at 4 °C for 4 h, washed three times with lysis buffer, western blot; both purified
T5 sequence: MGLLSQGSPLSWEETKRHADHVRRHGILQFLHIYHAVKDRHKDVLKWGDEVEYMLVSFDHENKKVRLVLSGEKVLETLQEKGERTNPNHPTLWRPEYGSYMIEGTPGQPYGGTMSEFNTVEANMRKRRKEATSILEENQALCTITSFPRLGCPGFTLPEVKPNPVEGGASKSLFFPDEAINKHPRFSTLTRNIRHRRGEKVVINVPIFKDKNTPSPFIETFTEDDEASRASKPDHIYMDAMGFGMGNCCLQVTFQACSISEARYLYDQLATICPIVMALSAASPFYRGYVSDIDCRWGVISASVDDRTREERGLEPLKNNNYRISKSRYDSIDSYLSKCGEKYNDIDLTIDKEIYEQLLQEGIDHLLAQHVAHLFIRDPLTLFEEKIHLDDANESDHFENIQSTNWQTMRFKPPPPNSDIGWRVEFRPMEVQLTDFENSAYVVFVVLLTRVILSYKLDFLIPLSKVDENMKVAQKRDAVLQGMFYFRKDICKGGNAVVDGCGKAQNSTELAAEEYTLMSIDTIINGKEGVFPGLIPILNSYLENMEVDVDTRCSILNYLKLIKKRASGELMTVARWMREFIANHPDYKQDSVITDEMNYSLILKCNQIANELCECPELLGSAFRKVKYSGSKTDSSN

Molecule: P300 (found in the GCLC-pull down complex, Fig. S6C) (from UniProt Q09472 1-2414) (enzyme)
- binding [1]: binds

B3: His-SIRT2 (enzyme, UniProt Q8IXJ6 1-389)
chain: MAEPDPSHPLETQAGKVQEAQDSDSDSEGGAAGGEADMDFLRNLFSQTLSLGSQKERLLDELTLEGVARYMQSERCRRVICLVGAGISTSAGIPDFRSPSTGLYDNLEKYHLPYPEAIFEISYFKKHPEPFFALAKELYPGQFKPTICHYFMRLLKDKGLLLRCYTQNIDTLERIAGLEQEDLVEAHGTFYTSHCVSASCRHEYPLSWMKEKIFSEVTPKCEDCQSLVKPDIVFFGESLPARFFSCMQSDFLKVDLLLVMGTSLQVQPFASLISKAPLSTPRLLINKEKAGQSDPFLGMIMGLGGGMDFDSKKAYRDVAWLGECDQGCLALAELLGWKKELEDLVRREHASIDAQSGAGVPNPSTSASPKKSPPPAKDEARTTEREKPQ
- binding [6]: binds

Now from value to molecule:

- binding [2]: binds
- binding [3]: binds
B1: endogenous GCLC (glutamate-cysteine ligase catalytic subunit) (enzyme, UniProt P48506 1-637)
chain: MGLLSQGSPLSWEETKRHADHVRRHGILQFLHIYHAVKDRHKDVLKWGDEVEYMLVSFDHENKKVRLVLSGEKVLETLQEKGERTNPNHPTLWRPEYGSYMIEGTPGQPYGGTMSEFNTVEANMRKRRKEATSILEENQALCTITSFPRLGCPGFTLPEVKPNPVEGGASKSLFFPDEAINKHPRFSTLTRNIRHRRGEKVVINVPIFKDKNTPSPFIETFTEDDEASRASKPDHIYMDAMGFGMGNCCLQVTFQACSISEARYLYDQLATICPIVMALSAASPFYRGYVSDIDCRWGVISASVDDRTREERGLEPLKNNNYRISKSRYDSIDSYLSKCGEKYNDIDLTIDKEIYEQLLQEGIDHLLAQHVAHLFIRDPLTLFEEKIHLDDANESDHFENIQSTNWQTMRFKPPPPNSDIGWRVEFRPMEVQLTDFENSAYVVFVVLLTRVILSYKLDFLIPLSKVDENMKVAQKRDAVLQGMFYFRKDICKGGNAVVDGCGKAQNSTELAAEEYTLMSIDTIINGKEGVFPGLIPILNSYLENMEVDVDTRCSILNYLKLIKKRASGELMTVARWMREFIANHPDYKQDSVITDEMNYSLILKCNQIANELCECPELLGSAFRKVKYSGSKTDSSN

- binding [4]: binds
- binding [5]: binds
B2: endogenous SIRT2 (NAD-dependent deacetylase Sirtuin-2) (enzyme, UniProt Q8IXJ6 1-389)
chain: MAEPDPSHPLETQAGKVQEAQDSDSDSEGGAAGGEADMDFLRNLFSQTLSLGSQKERLLDELTLEGVARYMQSERCRRVICLVGAGISTSAGIPDFRSPSTGLYDNLEKYHLPYPEAIFEISYFKKHPEPFFALAKELYPGQFKPTICHYFMRLLKDKGLLLRCYTQNIDTLERIAGLEQEDLVEAHGTFYTSHCVSASCRHEYPLSWMKEKIFSEVTPKCEDCQSLVKPDIVFFGESLPARFFSCMQSDFLKVDLLLVMGTSLQVQPFASLISKAPLSTPRLLINKEKAGQSDPFLGMIMGLGGGMDFDSKKAYRDVAWLGECDQGCLALAELLGWKKELEDLVRREHASIDAQSGAGVPNPSTSASPKKSPPPAKDEARTTEREKPQ
